Assay [1] addresses Rhesus monkey TNFα (Rhesus monkey (Macaca mulatta)) (UniProt P48094). Briefly: L929 neutralisation (SPR nd).
Assay [2] has as its target recombinant Cynomolgus monkey TNFα (Cynomolgus monkey (Macaca fascicularis)) (UniProt P79337). In words: L929 neutralisation (SPR nd).

Sequences of proteins named here, by UniProt entry; tags and fusion partners are left off. Residues count along the entry.
UniProt P48094, residues 77-233: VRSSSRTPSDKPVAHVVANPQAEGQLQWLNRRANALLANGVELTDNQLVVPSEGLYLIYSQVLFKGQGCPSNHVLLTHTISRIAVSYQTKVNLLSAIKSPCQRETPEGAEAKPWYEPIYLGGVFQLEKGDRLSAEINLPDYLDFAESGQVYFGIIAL
UniProt P79337, residues 77-233: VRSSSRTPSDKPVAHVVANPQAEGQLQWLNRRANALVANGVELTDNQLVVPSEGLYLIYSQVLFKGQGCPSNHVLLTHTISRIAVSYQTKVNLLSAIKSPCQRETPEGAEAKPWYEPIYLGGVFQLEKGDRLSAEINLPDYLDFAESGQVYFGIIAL

No constants are given. Whether binding was seen depends on the method and setting. Some entries that bind do so weakly or less than the wild type.

B1: humanized scFv 16-22-H05-sc04 (CDR/STR) (scFv)
scFv: MDIQMTQSPSSLSASVGDRVTITCQASQSIFSGLAWYQQKPGKAPKLLIYGASKLASGVPSRFSGSGSGTEFTLTISGLQPADFATYYCQSYYYSSSSSDGSYAFGGGTKLTVLGGGGGSGGGGSGGGGSGGGGSEVQLVESGGGLVQPGGSLRLSCKASGIDFNNYGIGWVRQAPGKGLEWITYIYPGFAITNFANSVKGRFTISSDNSKNTVYLQMNSLRAEDTAVYYCARDPVYATSSGYFDLWGQGTLVTVSS
As to B1, the binding entry in assay [1] and in assay [2] was “binds” in each case.

For the origin of these results see patent US20230279091A1.
